According to the supplement of paper PMC10689618:
Structures can show the parent of a compound that is named as a salt. The list shows a part of the results. Repeats are few or missing, and single values can be far off.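 Primary human fetal astrocytes engulfed labelled rat cortical synaptosomes, measured as a red/green ratio corrected for calcein live-cell signal and scaled to the plate median. Toxicity meant calcein falling over 30%; decreased phagocytosis meant below 70% of median above 5 µM.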

Assays:
Human fetal astrocytes [1] = experiment: loss of total cells relative to no-compound high-control median (toxicity); higher = more toxic (fewer cells); conditions: 24 h
Human fetal astrocytes [2] = experiment: synaptosome phagocytosis (pHrodo/calcein intensity ratio) relative to plate median of data wells; higher = more phagocytosis; conditions: 24 h

Compound	loss of total cells (Human fetal astrocytes [1]; 1.39 µM) [%]	loss of total cells (Human fetal astrocytes [1]; 2.78 µM) [%]	loss of total cells (Human fetal astrocytes [1]; 5.56 µM) [%]	loss of total cells (Human fetal astrocytes [1]; 11.11 µM) [%]	loss of total cells (Human fetal astrocytes [1]; 22.22 µM) [%]	synaptosome phagocytosis (Human fetal astrocytes [2]; 1.39 µM) [%]	synaptosome phagocytosis (Human fetal astrocytes [2]; 2.78 µM) [%]	synaptosome phagocytosis (Human fetal astrocytes [2]; 5.56 µM) [%]	synaptosome phagocytosis (Human fetal astrocytes [2]; 11.11 µM) [%]	synaptosome phagocytosis (Human fetal astrocytes [2]; 22.22 µM) [%]
CC(=O)O[C@H]1C[C@@H](OC(C)=O)C(C)(C)[C@@H]2C[C@@H](OC(C)=O)[C@@]3(C)C4=CC(=O)O[C@@H](c5ccoc5)[C@]4(C)CC[C@@H]3[C@@]12C	18.5	-4	37.4	45.2	24.1	104	67.7	102	132	90
O=c1c(O)cc([C@H]2Oc3cc(O)cc(O)c3C[C@H]2O)cc2c([C@H]3Oc4cc(O)cc(O)c4C[C@H]3O)cc(O)c(O)c12	8.3	2.7	32.8	26.5	22.6	151	130	141	96.1	96.6
CC[C@]1(O)C[C@@H]2CN(CCc3c([nH]c4ccccc34)[C@@](C(=O)OC)(c3cc4c(cc3OC)N(C)[C@H]3[C@@](O)(C(=O)OC)[C@H](OC(C)=O)[C@]5(CC)C=CCN6CC[C@]43[C@@H]65)C2)C1	-5.8	28.4	27.9	18.8	23.2	90.6	127	80.4	99.7	95.3
C[C@@H]1CC[C@H]2[C@](C)(CO)[C@@H](O)CC[C@]2(C)[C@@]12CC[C@@](CO)(CCO)O2	-9.8	-5.4	5.9	-2	5.2	132	73.9	116	90.4	77.7
COc1c2ccoc2c(OC)c2oc(=O)ccc12	-4	14.6	-8.4	45.8	-6.3	118	131	93.9	118	63
COc1c(N2C[C@@H]3CCCN[C@@H]3C2)c(F)cc2c(=O)c(C(=O)O)cn(C3CC3)c12	-22.6	-34.9	4.3	30.5	6.5	115	103	110	105	88.6
COc1cc(C)c(C(=O)Oc2cc(C)c(C(=O)O)c(O)c2C)c(O)c1C=O	-10.7	-0.4	15.4	10.8	15.6	94.2	100	98.2	113	164
CCN(CC)CCNC(=O)COc1ccc(OC)cc1	-44.8	-13.1	-2.7	-14.1	-3.4	108	91.2	83.4	69.8	102
C=C(C)CCCC(C)CCOC(C)=O (stereo not given)	-28.7	-1.1	11	5.4	13.3	104	123	100	97.2	117
c1ccc(C2CN3CCSC3=N2)cc1 (stereo not given) [Tetramisole hydrochloride]	-24.2	-14.3	-6.2	33.1	5.9	75.8	78.4	107	130	90.4
CCCCCC(=O)O[C@]1(C(C)=O)CC[C@H]2[C@@H]3CCC4=CC(=O)CC[C@]4(C)[C@H]3CC[C@@]21C	17.5	-6.4	0	13.5	9.4	124	117	94	86.4	77.6
NC[C@@H]1O[C@@H](O[C@H]2[C@H](O)[C@@H](O[C@H]3O[C@H](CO)[C@@H](O)[C@H](N)[C@H]3O)[C@H](N)C[C@@H]2N)[C@@H](O)[C@H](O)[C@H]1O	-26.4	-1	2.8	-6.6	14.9	110	115	95.9	118	97.5
CN(C(=O)C(Cl)Cl)c1ccc(OC(=O)c2ccco2)cc1	-29	-28.6	-3.1	-8.2	8.4	93.9	106	97.9	77.8	107
COc1cnc(NS(=O)(=O)c2ccc(N)cc2)nc1	-6.6	-13.1	-4.5	-17.2	7.9	81	107	112	72.4	97.7
C/C=C(/C(=C/C)c1ccc(O)cc1)c1ccc(O)cc1	10.4	-16.6	-24.4	4.9	-20.4	84.2	101	114	63.6	97.2
CC1(C)S[C@@H]2[C@H](NC(=O)Cc3ccccc3)C(=O)N2[C@H]1C(=O)O	-24.6	-20.7	-9.1	-6.6	-16.7	80.2	109	132	123	115
COc1ccc(NS(=O)(=O)c2ccc(N)cc2)nn1	-25.7	-0.3	-3.9	-13.3	12.5	119	98.3	90.2	98.7	120
C[C@H]1COc2c(N3CCN(C)CC3)c(F)cc3c(=O)c(C(=O)O)cn1c23	17.7	-30.2	13	-4.3	12.1	141	98.9	115	88.5	105
CN(C)CCc1c[nH]c2ccc(C[C@H]3COC(=O)N3)cc12	-28.2	-23.5	2.1	-21.9	-0.6	106	85.9	96.7	113	100
CS(=O)(=O)c1ccc([C@@H](O)[C@@H](CF)NC(=O)C(Cl)Cl)cc1	-11.2	10.6	-4.6	3.9	-13	138	79.4	108	115	93.4
CN1CCCN=C1/C=C/c1cccs1	1.5	-7.1	-9.1	1.4	19.8	96.4	102	118	105	103

An excerpt from above in order of length of the SMILES, rising:
Compound	loss of total cells (Human fetal astrocytes [1]; 1.39 µM) [%]	loss of total cells (Human fetal astrocytes [1]; 2.78 µM) [%]	loss of total cells (Human fetal astrocytes [1]; 5.56 µM) [%]	loss of total cells (Human fetal astrocytes [1]; 11.11 µM) [%]	loss of total cells (Human fetal astrocytes [1]; 22.22 µM) [%]	synaptosome phagocytosis (Human fetal astrocytes [2]; 1.39 µM) [%]	synaptosome phagocytosis (Human fetal astrocytes [2]; 2.78 µM) [%]	synaptosome phagocytosis (Human fetal astrocytes [2]; 5.56 µM) [%]	synaptosome phagocytosis (Human fetal astrocytes [2]; 11.11 µM) [%]	synaptosome phagocytosis (Human fetal astrocytes [2]; 22.22 µM) [%]
COc1c2ccoc2c(OC)c2oc(=O)ccc12	-4	14.6	-8.4	45.8	-6.3	118	131	93.9	118	63
CN(C)CCc1c[nH]c2ccc(C[C@H]3COC(=O)N3)cc12	-28.2	-23.5	2.1	-21.9	-0.6	106	85.9	96.7	113	100
C[C@H]1COc2c(N3CCN(C)CC3)c(F)cc3c(=O)c(C(=O)O)cn1c23	17.7	-30.2	13	-4.3	12.1	141	98.9	115	88.5	105

Remaining list, next part:

Compound	loss of total cells (Human fetal astrocytes [1]; 1.39 µM) [%]	loss of total cells (Human fetal astrocytes [1]; 2.78 µM) [%]	loss of total cells (Human fetal astrocytes [1]; 5.56 µM) [%]	loss of total cells (Human fetal astrocytes [1]; 11.11 µM) [%]	loss of total cells (Human fetal astrocytes [1]; 22.22 µM) [%]	synaptosome phagocytosis (Human fetal astrocytes [2]; 1.39 µM) [%]	synaptosome phagocytosis (Human fetal astrocytes [2]; 2.78 µM) [%]	synaptosome phagocytosis (Human fetal astrocytes [2]; 5.56 µM) [%]	synaptosome phagocytosis (Human fetal astrocytes [2]; 11.11 µM) [%]	synaptosome phagocytosis (Human fetal astrocytes [2]; 22.22 µM) [%]
OCCc1ccccc1	0.8	-17.4	2.7	-3.1	15.9	96.3	126	108	98.6	114
COc1cc(C(=O)NCCCCCC(=O)O)cc(OC)c1OC	12.9	-41.3	8.7	14.1	0.9	144	88.9	111	123	111
CC(O)(P(=O)(O)O)P(=O)(O)O	-38.7	-22.2	-4.3	-11.5	-5.3	86.7	92.5	121	101	89
CC(C)NC(=N)NC(=N)Nc1ccc(Cl)cc1	19.1	2.1	17.7	24.2	27.2	100	122	102	78.8	79.7
C/C(=C\CO)CC[C@H](C)CCC[C@H](C)CCCC(C)C	4.9	11.9	13.9	25.7	8.1	124	121	123	93.6	90
CC1=C(/C=C/C(C)=C/C=C/C(C)=C/C=C/C=C(C)/C=C/C=C(C)/C=C/C2=C(C)CCCC2(C)C)C(C)(C)CCC1	-2.5	-14.9	5.7	-9.4	14.7	96.2	85.8	102	92.6	123
Nc1cc(C(Cl)=C(Cl)Cl)c(S(N)(=O)=O)cc1S(N)(=O)=O	-23.4	-34.9	1.9	-12.1	4.7	106	85.2	116	76.8	114
CCCCCCCCCCC[C@@H](C[C@@H]1OC(=O)[C@H]1CCCCCC)OC(=O)[C@H](CC(C)C)NC=O	-21	-38.1	0.6	14.8	-0.3	126	108	133	120	130
COc1cc2c3cc1Oc1c(OC)c(OC)cc4c1[C@@H](Cc1ccc(O)c(c1)Oc1ccc(cc1)C[C@@H]3N(C)CC2)N(C)CC4	6.1	18.4	18.8	7.9	22	94.4	75.6	72.8	87.2	99.1
CC[C@@]1(O)C(=O)OCc2c1cc1n(c2=O)Cc2cc3cc(O)ccc3nc2-1	4.1	17	18.3	16.2	11.9	118	85.4	95	84.1	85.7
O=C1CN2Cc3c(ccc(Cl)c3Cl)N=C2N1	-31.5	-22.2	4.3	29.2	-5.3	107	86.9	104	136	103
Cc1c(N(C)CS(=O)(=O)O)c(=O)n(-c2ccccc2)n1C	-8.1	-42.9	5	4.9	0.3	118	91.9	114	119	141
CC(=O)Oc1cc2c(c(C)c1OC(C)=O)CC=C1[C@@]2(C)CC[C@@]2(C)C3C[C@](C)(C(=O)O)CC[C@]3(C)CC[C@]12C (stereo not given in full)	1.8	7.6	8	79.9	30.3	106	96.5	56.6	0	36.1
COc1ccc(-c2cc(=O)c3ccccc3o2)cc1	30.1	23.9	-15.3	47.1	26.3	124	122	115	148	139
CCN(CC)CCOCCOC(=O)C1(c2ccccc2)CCCC1	-26.6	-11.9	-15.3	-5.5	2.8	90.7	58.2	83.2	72.7	84.3
CC(C)=CCC/C(C)=C/COc1ccc2ccc(=O)oc2c1	1.6	-12.6	-5.1	14.9	14.8	138	96.8	80.5	85.3	133
COc1ccc2c(c1OC)C(=O)O[C@@H]2[C@H]1c2c(cc3c(c2OC)OCO3)CCN1C	-8.3	-8.8	13.5	0.8	0	99.5	121	93.9	98.1	102
CC1(C)[C@@H](O)CC[C@]2(C)[C@H]3C(=O)C=C4[C@@H]5C[C@@](C)(C(=O)O)CC[C@]5(C)CC[C@@]4(C)[C@]3(C)CC[C@@H]12	-1.8	-9.7	11.6	3.8	18.2	108	92.4	116	123	72.9
CC1=CCCC(C)=CCC(C)(C)C=CC1 [HUMULENE (alpha)]	-18.9	4.7	-4.4	12.8	10.4	96.9	124	116	98.8	118
CC1(C)C(=O)[C@H]2C[C@]3(O)C4=CC(=O)O[C@@H](c5ccoc5)[C@@]4(C)CCC3[C@](C)(C2=O)[C@H]1CC(=O)O (stereo not given in full)	-4.7	-6.6	36.6	43.9	0.4	110	97.7	146	96.6	117
